According to the supplement of paper PMC6078165:
The reference is the same well before dosing, and untreated signal decays as well.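 Labels refer to human fibroblasts, largely primary: uterine (C12385, HUF), lung (H6013), bone (Hs27A), adrenal (HADF), skin (WS1), plus mammary HMF and breast cancer-associated Hs343T. Cancer lines are basal-like or mesenchymal-like triple-negative breast cancer. The paper counts as hits responses shifting over 3x the replicate standard deviation. The tissue of the other fibroblasts is not given here.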

Test system: Hs578T
Assay: relative JC-1 red fluorescence (viability) vs pre-drug, coculture with fibroblast (fraction); higher = more viable cancer cells
Protocol: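 JC-1 labelled TNBC cells cocultured 1:1 (1,500 cells each) with CellTrace Violet stained primary or stromal fibroblasts in 384-well plates in FluoroBrite medium, treated with one of 42 anticancer drugs at 0.1, 1, 10 or 100 uM. JC-1 red fluorescence (mitochondrial integrity in cancer cells only) was read by plate reader every 8 h for 72 h. Values are normalised to each well's pre-drug value. The stock of one drug was tenfold lower, so its dose labels may be too high.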

CC(C)(C#N)c1cc(Cn2cncn2)cc(C(C)(C)C#N)c1 [Anastrozole]
relative JC-1 red fluorescence
Conditions	8 h	16 h	24 h	32 h	40 h	48 h	56 h	64 h	72 h
0.1 µM	0.949	0.821	0.721	0.662	0.58	0.531	0.483	0.435	0.415
1 µM	0.8974	0.781	0.707	0.668	0.617	0.576	0.559	0.523	0.51

relative JC-1 red fluorescence
Conditions	8 h	16 h	24 h	32 h	40 h	48 h	56 h	64 h	72 h
0.1 µM, coculture fibroblast: C12385	0.839	0.715	0.692	0.597	0.524	0.488	0.46	0.454	0.451
0.1 µM, coculture fibroblast: H6013	0.802	0.778	0.744	0.71	0.675	0.664	0.648	0.634	0.61
0.1 µM, coculture fibroblast: H6019	0.779	0.698	0.671	0.583	0.544	0.522	0.494	0.48	0.458
0.1 µM, coculture fibroblast: H6076	0.9172	0.831	0.76	0.722	0.676	0.654	0.626	0.615	0.611
0.1 µM, coculture fibroblast: H6231	0.881	0.758	0.703	0.661	0.6	0.57	0.537	0.527	0.521
0.1 µM, coculture fibroblast: HADF	0.8932	0.7658	0.682	0.623	0.57	0.5342	0.506	0.491	0.463
0.1 µM, coculture fibroblast: HCFa	0.82825	0.7307	0.667	0.597	0.53	0.5	0.467	0.443	0.407
0.1 µM, coculture fibroblast: HCPF	0.896	0.793	0.755	0.734	0.674	0.651	0.6377	0.612	0.598
0.1 µM, coculture fibroblast: HHSteC	0.878	0.799	0.751	0.716	0.66	0.627	0.604	0.587	0.554
0.1 µM, coculture fibroblast: HMF	0.925	0.841	0.748	0.705	0.643	0.607	0.557	0.527	0.512
0.1 µM, coculture fibroblast: HPFa	0.9476	0.8618	0.809	0.752	0.712	0.676	0.635	0.614	0.568
0.1 µM, coculture fibroblast: HUF	0.8761	0.7211	0.71	0.601	0.551	0.515	0.488	0.482	0.481
0.1 µM, coculture fibroblast: Hs27A	0.9033	0.814	0.756	0.706	0.64	0.619	0.574	0.556	0.508
0.1 µM, coculture fibroblast: Hs343T	0.919	0.8	0.724	0.7	0.615	0.5836	0.537	0.511	0.51
0.1 µM, coculture fibroblast: WS1	0.801	0.7072	0.677	0.591	0.54	0.523	0.504	0.507	0.506
1 µM, coculture fibroblast: C12385	0.82	0.717	0.647	0.561	0.501	0.464	0.431	0.417	0.412
1 µM, coculture fibroblast: H6013	0.901	0.804	0.755	0.7	0.638	0.616	0.594	0.583	0.549
1 µM, coculture fibroblast: H6019	0.787	0.668	0.648	0.547	0.519	0.499	0.464	0.449	0.427
1 µM, coculture fibroblast: H6076	0.92	0.8254	0.7489	0.723	0.682	0.676	0.654	0.648	0.645
1 µM, coculture fibroblast: H6231	0.891	0.792	0.675	0.6345	0.5607	0.5292	0.479	0.452	0.435
1 µM, coculture fibroblast: HADF	0.914	0.856	0.785	0.733	0.69	0.662	0.632	0.623	0.594
1 µM, coculture fibroblast: HCFa	0.885	0.797	0.722	0.654	0.57	0.538	0.495	0.47	0.425
1 µM, coculture fibroblast: HCPF	0.8724	0.784	0.724	0.691	0.637	0.61	0.5894	0.556	0.5413
1 µM, coculture fibroblast: HHSteC	0.914	0.78	0.725	0.661	0.581	0.54	0.503	0.468	0.427
1 µM, coculture fibroblast: HMF	0.871	0.775	0.7	0.673	0.615	0.5822	0.5424	0.514	0.498
1 µM, coculture fibroblast: HPFa	0.9369	0.894	0.752	0.682	0.626	0.583	0.546	0.519	0.471
1 µM, coculture fibroblast: HUF	0.806	0.684	0.63	0.525	0.46	0.425	0.395	0.384	0.379
1 µM, coculture fibroblast: Hs27A	0.8749	0.817	0.747	0.704	0.645	0.624	0.585	0.575	0.533
1 µM, coculture fibroblast: Hs343T	0.9	0.779	0.711	0.694	0.63276	0.6029	0.56	0.536	0.539
1 µM, coculture fibroblast: WS1	0.796	0.683	0.58	0.485	0.419	0.392	0.362	0.35	0.342
